Test results taken from paper PMC8522249.
Results are given in words; binding and its absence hold for the method and conditions named. In cells and extracts the contact can be indirect. Some results given as binding are weak or reduced against the parent protein; the word gives no strength.

Chains of the proteins cited; added tags and fusions are not shown. Residues count along the entry.
UniProt P05067, residues 672-770: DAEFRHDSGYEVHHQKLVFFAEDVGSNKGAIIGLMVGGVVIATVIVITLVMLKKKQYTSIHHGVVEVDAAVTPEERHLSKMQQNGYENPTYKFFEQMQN
UniProt P60468: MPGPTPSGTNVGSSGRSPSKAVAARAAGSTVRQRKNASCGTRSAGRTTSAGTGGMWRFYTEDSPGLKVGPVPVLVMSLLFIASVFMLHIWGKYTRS

B1: ZNF598 (protein, UniProt Q86UK7 1-904)
chain: MAAAGGAEGRRAALEAAAAAAPERGGGSCVLCCGDLEATALGRCDHPVCYRCSTKMRVLCEQRYCAVCREELRQVVFGKKLPAFATIPIHQLQHEKKYDIYFADGKVYALYRQLLQHECPRCPELPPFSLFGDLEQHMRRQHELFCCRLCLQHLQIFTYERKWYSRKDLARHRMQGDPDDTSHRGHPLCKFCDERYLDNDELLKHLRRDHYFCHFCDSDGAQDYYSDYAYLREHFREKHFLCEEGRCSTEQFTHAFRTEIDLKAHRTACHSRSRAEARQNRHIDLQFSYAPRHSRRNEGVVGGEDYEEVDRYSRQGRVARAGTRGAQQSRRGSWRYKREEEDREVAAAVRASVAAQQQEEARRSEDQEEGGRPKKEEAAARGPEDPRGPRRSPRTQGEGPGPKETSTNGPVSQEAFSVTGPAAPGCVGVPGALPPPSPKLKDEDFPSLSASTSSSCSTAATPGPVGLALPYAIPARGRSAFQEEDFPALVSSVPKPGTAPTSLVSAWNSSSSSKKVAQPPLSAQATGSGQPTRKAGKGSRGGRKGGPPFTQEEEEDGGPALQELLSTRPTGSVSSTLGLASIQPSKVGKKKKVGSEKPGTTLPQPPPATCPPGALQAPEAPASRAEGPVAVVVNGHTEGPAPARSAPKEPPGLPRPLGSFPCPTPQEDFPALGGPCPPRMPPPPGFSAVVLLKGTPPPPPPGLVPPISKPPPGFSGLLPSPHPACVPSPATTTTTKAPRLLPAPRAYLVPENFRERNLQLIQSIRDFLQSDEARFSEFKSHSGEFRQGLISAAQYYKSCRDLLGENFQKVFNELLVLLPDTAKQQELLSAHTDFCNREKPLSTKSKKNKKSAWQATTQQAGLDCRVCPTCQQVLAHGDASSHQALHAARDDDFPSLQAIARIIT
B2: NEMF (protein, UniProt O60524 1-1076)
chain: MKSRFSTIDLRAVLAELNASLLGMRVNNVYDVDNKTYLIRLQKPDFKATLLLESGIRIHTTEFEWPKNMMPSSFAMKCRKHLKSRRLVSAKQLGVDRIVDFQFGSDEAAYHLIIELYDRGNIVLTDYEYVILNILRFRTDEADDVKFAVRERYPLDHARAAEPLLTLERLTEIVASAPKGELLKRVLNPLLPYGPALIEHCLLENGFSGNVKVDEKLETKDIEKVLVSLQKAEDYMKTTSNFSGKGYIIQKREIKPSLEADKPVEDILTYEEFHPFLFSQHSQCPYIEFESFDKAVDEFYSKIEGQKIDLKALQQEKQALKKLDNVRKDHENRLEALQQAQEIDKLKGELIEMNLQIVDRAIQVVRSALANQIDWTEIGLIVKEAQAQGDPVASAIKELKLQTNHVTMLLRNPYLLSEEEDDDVDGDVNVEKNETEPPKGKKKKQKNKQLQKPQKNKPLLVDVDLSLSAYANAKKYYDHKRYAAKKTQKTVEAAEKAFKSAEKKTKQTLKEVQTVTSIQKARKVYWFEKFLWFISSENYLIIGGRDQQQNEIIVKRYLTPGDIYVHADLHGATSCVIKNPTGEPIPPRTLTEAGTMALCYSAAWDARVITSAWWVYHHQVSKTAPTGEYLTTGSFMIRGKKNFLPPSYLMMGFSFLFKVDESCVWRHQGERKVRVQDEDMETLASCTSELISEEMEQLDGGDTSSDEDKEEHETPVEVELMTQVDQEDITLQSGRDELNEELIQEESSEDEGEYEEVRKDQDSVGEMKDEGEETLNYPDTTIDLSHLQPQRSIQKLASKEESSNSSDSKSQSRRHLSAKERREMKKKKLPSDSGDLEALEGKDKEKESTVHIETHQNTSKNVAAVQPMKRGQKSKMKKMKEKYKDQDEEDRELIMKLLGSAGSNKEEKGKKGKKGKTKDEPVKKQPQKPRGGQRVSDNIKKETPFLEVITHELQDFAVDDPHDDKEEQDLDQQGNEENLFDSLTGQPHPEDVLLFAIPICAPYTTMTNYKYKVKLTPGVQKKGKAAKTALNSFMHSKEATAREKDLFRSVKDTDLSRNIPGKVKVSAPNLLNVKRK
B3: ANKZF1 (protein, UniProt Q9H8Y5 1-726)
chain: MSPAPDAAPAPASISLFDLSADAPVFQGLSLVSHAPGEALARAPRTSCSGSGERESPERKLLQGPMDISEKLFCSTCDQTFQNHQEQREHYKLDWHRFNLKQRLKDKPLLSALDFEKQSSTGDLSSISGSEDSDSASEEDLQTLDRERATFEKLSRPPGFYPHRVLFQNAQGQFLYAYRCVLGPHQDPPEEAELLLQNLQSRGPRDCVVLMAAAGHFAGAIFQGREVVTHKTFHRYTVRAKRGTAQGLRDARGGPSHSAGANLRRYNEATLYKDVRDLLAGPSWAKALEEAGTILLRAPRSGRSLFFGGKGAPLQRGDPRLWDIPLATRRPTFQELQRVLHKLTTLHVYEEDPREAVRLHSPQTHWKTVREERKKPTEEEIRKICRDEKEALGQNEESPKQGSGSEGEDGFQVELELVELTVGTLDLCESEVLPKRRRRKRNKKEKSRDQEAGAHRTLLQQTQEEEPSTQSSQAVAAPLGPLLDEAKAPGQPELWNALLAACRAGDVGVLKLQLAPSPADPRVLSLLSAPLGSGGFTLLHAAAAAGRGSVVRLLLEAGADPTVQDSRARPPYTVAADKSTRNEFRRFMEKNPDAYDYNKAQVPGPLTPEMEARQATRKREQKAARRQREEQQQRQQEQEEREREEQRRFAALSDREKRALAAERRLAAQLGAPTSPIPDSAIVNTRRCWSCGASLQGLTPFHYLDFSFCSTRCLQDHRRQAGRPSS

Tests used:
[1] = molecular target: APP.C99 (amyloid precursor protein C-terminal fragment), full-length species (human) (UniProt P05067); assay: co-IP; IP of APP.C99 from transfected HeLa cells (the methods list 6E10), protein A/G beads; blots for ribosome-associated QC factors
[2] = molecular target: Sec61B (ER translocon protein) (human (endogenous in HeLa)) (UniProt P60468); assay: pull-down; ER translocon and associated proteins captured on concanavalin A (ConA) agarose beads from extracts or crude membrane fractions of HeLa cells, untransfected or transfected with APP.C99, 2 h at 4 °C; beads also treated with RNase A (1 µg/ml, 37 °C, 30 min) or EDTA (50 mM, on ice, 30 min)

Binder	binding [1]	binding [2]
B1	binds	binds
B2	binds weakly	
B3	no binding	
